Data published in the supplement of paper PMC10849652.
The list shows a part of the results.

Chains of the proteins cited; added tags and fusions are not shown. Lines headed by an entry give the natural chain unless they say otherwise; changes in a name come on top.
UniProt Q8NC42: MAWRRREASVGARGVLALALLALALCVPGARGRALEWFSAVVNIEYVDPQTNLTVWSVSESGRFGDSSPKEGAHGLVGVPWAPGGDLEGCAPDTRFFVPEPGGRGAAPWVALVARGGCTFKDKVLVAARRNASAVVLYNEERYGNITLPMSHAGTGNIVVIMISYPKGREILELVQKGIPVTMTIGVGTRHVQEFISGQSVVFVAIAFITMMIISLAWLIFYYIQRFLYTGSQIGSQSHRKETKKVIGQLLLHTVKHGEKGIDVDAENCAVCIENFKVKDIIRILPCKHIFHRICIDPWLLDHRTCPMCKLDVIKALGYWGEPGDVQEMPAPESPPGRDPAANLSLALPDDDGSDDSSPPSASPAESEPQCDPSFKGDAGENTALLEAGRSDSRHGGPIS
UniProt O00584, whole entry, looked up: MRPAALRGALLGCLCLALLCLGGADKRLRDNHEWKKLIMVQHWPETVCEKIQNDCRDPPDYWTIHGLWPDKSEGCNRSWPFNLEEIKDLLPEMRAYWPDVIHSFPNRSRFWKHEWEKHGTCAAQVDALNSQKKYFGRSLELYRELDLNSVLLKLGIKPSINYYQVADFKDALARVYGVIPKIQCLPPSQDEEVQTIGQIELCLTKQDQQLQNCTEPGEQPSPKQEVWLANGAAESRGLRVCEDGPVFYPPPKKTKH
UniProt Q96BH1: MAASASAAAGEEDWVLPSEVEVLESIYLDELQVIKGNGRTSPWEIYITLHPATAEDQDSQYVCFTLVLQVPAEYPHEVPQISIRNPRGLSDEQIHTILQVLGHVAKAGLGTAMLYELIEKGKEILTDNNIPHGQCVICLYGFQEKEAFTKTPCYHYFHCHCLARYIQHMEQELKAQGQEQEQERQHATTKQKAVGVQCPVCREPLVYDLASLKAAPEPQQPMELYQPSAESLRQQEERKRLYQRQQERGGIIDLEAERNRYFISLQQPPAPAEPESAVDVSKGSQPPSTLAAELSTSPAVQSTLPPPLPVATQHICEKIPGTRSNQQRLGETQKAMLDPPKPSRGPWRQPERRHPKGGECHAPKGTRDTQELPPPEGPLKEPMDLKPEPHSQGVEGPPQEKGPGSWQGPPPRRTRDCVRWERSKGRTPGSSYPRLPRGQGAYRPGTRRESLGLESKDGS
UniProt Q15287: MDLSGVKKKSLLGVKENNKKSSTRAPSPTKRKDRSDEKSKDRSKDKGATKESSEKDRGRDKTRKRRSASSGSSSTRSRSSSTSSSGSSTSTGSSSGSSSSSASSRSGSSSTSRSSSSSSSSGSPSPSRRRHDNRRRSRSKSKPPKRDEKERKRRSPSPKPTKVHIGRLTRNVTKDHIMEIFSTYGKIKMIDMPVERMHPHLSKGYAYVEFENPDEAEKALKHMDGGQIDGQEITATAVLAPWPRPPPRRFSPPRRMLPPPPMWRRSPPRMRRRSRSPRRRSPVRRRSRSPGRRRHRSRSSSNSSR
UniProt Q8WVD3: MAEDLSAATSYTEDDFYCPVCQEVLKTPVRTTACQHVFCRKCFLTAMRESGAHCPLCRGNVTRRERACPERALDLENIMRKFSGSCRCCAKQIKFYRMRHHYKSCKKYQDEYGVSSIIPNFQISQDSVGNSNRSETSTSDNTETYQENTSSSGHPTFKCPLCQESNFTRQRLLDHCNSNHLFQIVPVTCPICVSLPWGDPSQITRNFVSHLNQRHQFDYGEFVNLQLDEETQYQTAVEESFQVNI
UniProt P52758: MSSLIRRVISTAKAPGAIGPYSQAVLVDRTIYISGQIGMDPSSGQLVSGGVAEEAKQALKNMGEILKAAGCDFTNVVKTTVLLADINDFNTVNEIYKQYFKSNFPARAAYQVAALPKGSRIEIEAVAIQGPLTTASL
UniProt Q9GZN7, whole entry, looked up: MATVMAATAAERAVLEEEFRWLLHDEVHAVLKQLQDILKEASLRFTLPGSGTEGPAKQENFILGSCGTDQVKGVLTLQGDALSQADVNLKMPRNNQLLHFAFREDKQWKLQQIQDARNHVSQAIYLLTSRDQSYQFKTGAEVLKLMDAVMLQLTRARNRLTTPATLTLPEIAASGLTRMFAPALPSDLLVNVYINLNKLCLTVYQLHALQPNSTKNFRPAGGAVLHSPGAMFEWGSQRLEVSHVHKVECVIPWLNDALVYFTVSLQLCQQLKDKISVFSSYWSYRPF
UniProt Q8IYW5, whole entry, looked up: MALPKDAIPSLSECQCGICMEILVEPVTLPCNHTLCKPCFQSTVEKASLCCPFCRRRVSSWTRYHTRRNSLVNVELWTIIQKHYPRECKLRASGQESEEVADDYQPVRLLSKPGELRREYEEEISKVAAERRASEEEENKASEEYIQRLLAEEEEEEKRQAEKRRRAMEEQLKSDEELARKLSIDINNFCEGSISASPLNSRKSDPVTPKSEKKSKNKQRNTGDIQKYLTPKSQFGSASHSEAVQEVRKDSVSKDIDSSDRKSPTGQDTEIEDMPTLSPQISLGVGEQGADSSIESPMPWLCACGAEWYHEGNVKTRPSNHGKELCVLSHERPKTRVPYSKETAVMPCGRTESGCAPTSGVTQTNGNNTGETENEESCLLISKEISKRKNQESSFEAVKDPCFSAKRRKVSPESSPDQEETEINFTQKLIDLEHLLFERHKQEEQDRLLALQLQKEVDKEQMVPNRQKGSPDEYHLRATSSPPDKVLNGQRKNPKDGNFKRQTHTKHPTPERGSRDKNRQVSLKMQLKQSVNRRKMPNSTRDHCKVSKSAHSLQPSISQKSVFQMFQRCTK
UniProt P60602: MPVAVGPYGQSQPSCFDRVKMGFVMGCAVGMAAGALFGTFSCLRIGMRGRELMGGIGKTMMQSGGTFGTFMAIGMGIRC
UniProt Q01974, whole entry, looked up: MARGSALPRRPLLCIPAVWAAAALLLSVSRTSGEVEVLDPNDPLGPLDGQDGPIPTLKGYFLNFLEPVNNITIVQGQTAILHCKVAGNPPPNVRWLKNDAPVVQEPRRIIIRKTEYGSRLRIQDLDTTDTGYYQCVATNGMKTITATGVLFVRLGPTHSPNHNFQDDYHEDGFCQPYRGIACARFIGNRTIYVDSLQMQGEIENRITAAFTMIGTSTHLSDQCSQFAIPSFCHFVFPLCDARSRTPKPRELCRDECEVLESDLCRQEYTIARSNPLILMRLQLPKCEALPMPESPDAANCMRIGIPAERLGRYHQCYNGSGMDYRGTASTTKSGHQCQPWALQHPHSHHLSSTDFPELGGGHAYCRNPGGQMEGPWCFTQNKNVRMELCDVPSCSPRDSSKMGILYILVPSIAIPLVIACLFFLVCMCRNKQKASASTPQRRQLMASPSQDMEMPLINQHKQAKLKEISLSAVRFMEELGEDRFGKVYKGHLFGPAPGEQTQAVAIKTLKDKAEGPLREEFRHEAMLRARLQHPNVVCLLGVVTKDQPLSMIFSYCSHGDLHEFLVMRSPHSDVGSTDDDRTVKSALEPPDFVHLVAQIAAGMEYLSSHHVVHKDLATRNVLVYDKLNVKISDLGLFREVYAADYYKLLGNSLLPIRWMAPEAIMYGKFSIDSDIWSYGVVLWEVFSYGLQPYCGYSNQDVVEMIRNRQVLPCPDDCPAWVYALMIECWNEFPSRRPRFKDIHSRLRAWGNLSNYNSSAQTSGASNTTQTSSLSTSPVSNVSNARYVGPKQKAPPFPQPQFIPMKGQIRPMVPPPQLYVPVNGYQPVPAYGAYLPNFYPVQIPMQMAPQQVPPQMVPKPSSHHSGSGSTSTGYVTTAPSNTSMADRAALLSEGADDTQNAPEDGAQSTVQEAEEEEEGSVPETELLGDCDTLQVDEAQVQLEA
UniProt Q13129: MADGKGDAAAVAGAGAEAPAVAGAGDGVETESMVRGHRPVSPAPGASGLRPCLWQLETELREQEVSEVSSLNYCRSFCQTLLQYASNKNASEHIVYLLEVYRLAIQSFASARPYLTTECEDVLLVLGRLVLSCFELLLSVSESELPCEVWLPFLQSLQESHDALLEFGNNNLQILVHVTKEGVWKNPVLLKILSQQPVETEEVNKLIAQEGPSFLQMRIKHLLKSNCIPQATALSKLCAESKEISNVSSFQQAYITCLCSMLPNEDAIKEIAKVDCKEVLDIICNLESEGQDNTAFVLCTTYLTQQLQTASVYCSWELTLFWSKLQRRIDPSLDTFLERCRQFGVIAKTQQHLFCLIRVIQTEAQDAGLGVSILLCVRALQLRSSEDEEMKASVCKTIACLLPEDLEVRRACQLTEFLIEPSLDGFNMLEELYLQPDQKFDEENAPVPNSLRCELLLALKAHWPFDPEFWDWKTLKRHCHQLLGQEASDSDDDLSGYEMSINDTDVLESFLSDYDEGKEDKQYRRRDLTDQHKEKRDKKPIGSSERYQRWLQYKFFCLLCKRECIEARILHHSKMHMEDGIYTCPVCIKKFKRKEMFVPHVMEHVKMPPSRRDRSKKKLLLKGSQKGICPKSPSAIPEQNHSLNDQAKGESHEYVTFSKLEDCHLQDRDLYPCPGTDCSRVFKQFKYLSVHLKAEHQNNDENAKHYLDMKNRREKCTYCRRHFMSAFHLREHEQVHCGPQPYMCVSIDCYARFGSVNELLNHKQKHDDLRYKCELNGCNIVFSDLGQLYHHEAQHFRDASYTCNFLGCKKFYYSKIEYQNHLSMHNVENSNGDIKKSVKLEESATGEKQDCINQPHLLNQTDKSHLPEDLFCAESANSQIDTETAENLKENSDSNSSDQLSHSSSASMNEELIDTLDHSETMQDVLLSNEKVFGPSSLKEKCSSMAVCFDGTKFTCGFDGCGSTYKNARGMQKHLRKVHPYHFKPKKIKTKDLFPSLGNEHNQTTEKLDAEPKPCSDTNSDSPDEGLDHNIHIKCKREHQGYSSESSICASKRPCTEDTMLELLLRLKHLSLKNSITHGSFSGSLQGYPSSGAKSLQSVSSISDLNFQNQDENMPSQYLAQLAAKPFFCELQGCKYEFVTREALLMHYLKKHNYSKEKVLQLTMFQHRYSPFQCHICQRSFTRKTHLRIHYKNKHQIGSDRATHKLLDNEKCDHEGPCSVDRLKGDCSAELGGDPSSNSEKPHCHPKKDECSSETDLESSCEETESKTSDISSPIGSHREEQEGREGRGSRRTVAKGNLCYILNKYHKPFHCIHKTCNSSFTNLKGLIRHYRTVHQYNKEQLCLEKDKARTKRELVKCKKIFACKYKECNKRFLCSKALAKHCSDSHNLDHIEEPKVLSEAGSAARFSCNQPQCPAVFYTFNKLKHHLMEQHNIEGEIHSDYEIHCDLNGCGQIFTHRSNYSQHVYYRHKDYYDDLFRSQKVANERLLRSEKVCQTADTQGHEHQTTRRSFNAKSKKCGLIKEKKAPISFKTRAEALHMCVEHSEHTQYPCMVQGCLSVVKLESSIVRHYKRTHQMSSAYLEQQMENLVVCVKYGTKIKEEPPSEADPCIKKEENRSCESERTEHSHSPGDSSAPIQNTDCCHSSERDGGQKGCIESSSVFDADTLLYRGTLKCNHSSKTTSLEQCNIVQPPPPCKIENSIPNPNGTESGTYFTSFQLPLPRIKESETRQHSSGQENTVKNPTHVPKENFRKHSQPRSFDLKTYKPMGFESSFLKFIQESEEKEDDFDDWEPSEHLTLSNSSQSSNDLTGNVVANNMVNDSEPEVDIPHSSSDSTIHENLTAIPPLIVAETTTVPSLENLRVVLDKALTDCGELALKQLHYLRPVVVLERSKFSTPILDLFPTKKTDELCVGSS
UniProt Q9NWS8: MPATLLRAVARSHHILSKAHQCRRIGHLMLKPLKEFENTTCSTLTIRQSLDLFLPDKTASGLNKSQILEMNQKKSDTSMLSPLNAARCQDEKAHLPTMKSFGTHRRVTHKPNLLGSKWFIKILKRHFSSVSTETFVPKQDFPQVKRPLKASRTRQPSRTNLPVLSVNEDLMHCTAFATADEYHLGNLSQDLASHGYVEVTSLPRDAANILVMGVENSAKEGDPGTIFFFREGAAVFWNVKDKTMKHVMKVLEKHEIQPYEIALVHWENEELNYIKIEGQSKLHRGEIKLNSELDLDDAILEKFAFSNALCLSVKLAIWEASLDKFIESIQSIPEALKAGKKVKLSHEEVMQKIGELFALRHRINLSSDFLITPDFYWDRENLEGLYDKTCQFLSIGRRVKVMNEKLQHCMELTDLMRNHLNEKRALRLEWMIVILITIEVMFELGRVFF
UniProt O75695: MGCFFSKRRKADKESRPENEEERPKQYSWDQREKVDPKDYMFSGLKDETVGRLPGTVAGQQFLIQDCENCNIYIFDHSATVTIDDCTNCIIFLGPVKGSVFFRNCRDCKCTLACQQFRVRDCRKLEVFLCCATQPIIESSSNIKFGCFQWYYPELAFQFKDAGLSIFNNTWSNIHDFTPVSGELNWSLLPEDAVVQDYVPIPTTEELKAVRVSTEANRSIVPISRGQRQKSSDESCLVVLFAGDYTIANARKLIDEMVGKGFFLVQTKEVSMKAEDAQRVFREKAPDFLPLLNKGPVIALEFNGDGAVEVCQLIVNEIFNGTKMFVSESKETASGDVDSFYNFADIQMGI

What was measured:
Test in all cases: log2 fold change, soluble protein after heating vs DMSO (PISA); higher = thermal stabilisation; K562 lysate, 10 uM; active = over 0.2 and 3.5 SD of the protein, either way, in both replicates (recomputed)
nilotinib = compound: Cc1cn(-c2cc(NC(=O)c3ccc(C)c(Nc4nccc(-c5cccnc5)n4)c3)cc(C(F)(F)F)c2)cn1 [nilotinib]
In short: (§1)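 Following dounce homogenisation of K562 pellets in PBS pH 7.4 with 1 mM MgCl2, crude extract at 1 mg/mL protein was incubated for 30 min with 10 μM compound. Aliquots were then heated for 3 min over 48°C-58°C and pooled, NP-40 was added to 0.5% at 4°C, and soluble protein was recovered as the supernatant at 21,000xg for 90 min. Channel-sum-equalised TMTpro 16plex LC-MS/MS quantified this protein. Each value, from duplicates, is a log-two fold change in thermal stability relative to solvent controls.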

[1] = compound: Cc1nc(Nc2n[nH]c3c2CN(C(=O)N[C@H](CN(C)C)c2ccccc2)C3(C)C)c2sccc2n1
In short: as §1

dasatinib = compound: Cc1nc(Nc2ncc(C(=O)Nc3c(C)cccc3Cl)s2)cc(N2CCN(CCO)CC2)n1 [dasatinib]
In short: as §1

[2] = compound: Cc1ncc(-c2ccnc(Nc3ccc(S(C)(=O)=O)cc3)n2)n1C(C)C
In short: as §1

[3] = compound: Cn1cc(-c2ccc3c(c2)CCN3C(=O)Cc2cccc(C(F)(F)F)c2)c2c(N)ncnc21
In short: as §1

quisinostat = compound: Cn1cc(CNCC2CCN(c3ncc(C(=O)NO)cn3)CC2)c2ccccc21 [quisinostat]
In short: as §1

tipifarnib = compound: Cn1cncc1[C@@](N)(c1ccc(Cl)cc1)c1ccc2c(c1)c(-c1cccc(Cl)c1)cc(=O)n2C [tipifarnib]
In short: as §1

[4] = compound: NC(=O)Nc1cc(-c2cccc(F)c2)sc1C(=O)N[C@H]1CCCNC1
In short: as §1

[5] = compound: NC(=O)c1cnc(N[C@@H]2CCCC[C@@H]2N)nc1Nc1cccc(-n2nccn2)c1
In short: as §1

[6] = compound: NC1(c2ccc(-c3nc4ccn5c(=O)[nH]nc5c4cc3-c3ccccc3)cc2)CCC1
In short: as §1

Measured: log2 fold change

RPL29 (UniProt P47914)
inactive: nilotinib 0.032 | [1] 0.017 | dasatinib -0.004 | [2] -0.011 | [3] -0.032 | quisinostat 0.048 | tipifarnib 0.098 | [4] 0.039 | [5] -0.02 | [6] -0.059

RPL36 (UniProt Q9Y3U8)
inactive: nilotinib 0.056 | [1] -0.04 | dasatinib 0.009 | [2] -0.018 | [3] 0.014 | quisinostat -0.021 | tipifarnib -0.009 | [4] 0.02 | [5] 0.006 | [6] -0.033

RNF149 (UniProt Q8NC42)
inactive: nilotinib 0.083 | [1] 0.129 | dasatinib -0.019 | [2] 0.099 | [3] 0.003 | quisinostat -0.019 | tipifarnib 0.087 | [4] 0.038 | [5] 0.156 | [6] -0.019

RNASET2 (UniProt O00584)
inactive: nilotinib 0.029 | [1] -0.005 | dasatinib 0.013 | [2] -0.031 | [3] -0.039 | quisinostat -0.002 | tipifarnib 0.008 | [4] -0.016 | [5] -0.018 | [6] 0.005

RPL36A (UniProt P83881)
inactive: nilotinib 0 | [1] -0.01 | dasatinib -0.055 | [2] 0.025 | [3] -0.108 | quisinostat -0.011 | tipifarnib 0.018 | [4] -0.044 | [5] -0.013 | [6] -0.04

RIC8A (UniProt Q9NPQ8)
inactive: nilotinib 0.001 | [1] 0.003 | dasatinib -0.021 | [2] -0.012 | [3] 0.013 | quisinostat -0.012 | tipifarnib -0.023 | [4] 0.088 | [5] 0.02 | [6] -0.003

RPL13A (UniProt P40429)
inactive: nilotinib 0.025 | [1] -0.04 | dasatinib -0.006 | [2] 0.008 | [3] 0.012 | quisinostat 0.016 | tipifarnib 0.01 | [4] -0.021 | [5] -0.005 | [6] 0.025

RNF20 (UniProt Q5VTR2)
inactive: nilotinib 0.019 | [1] -0.044 | dasatinib -0.016 | [2] 0.002 | [3] 0.005 | quisinostat -0.007 | tipifarnib -0.001 | [4] 0.011 | [5] 0.001 | [6] 0.023

RPL14 (UniProt P50914)
inactive: nilotinib -0.014 | [1] 0.015 | dasatinib 0.006 | [2] -0.001 | [3] -0.004 | quisinostat 0.143 | tipifarnib -0.021 | [4] -0.041 | [5] 0.034 | [6] 0.001

RMI1 (UniProt Q9H9A7)
inactive: nilotinib 0 | [1] -0.05 | dasatinib -0.041 | [2] -0.017 | [3] 0.05 | quisinostat -0.012 | tipifarnib -0.146 | [4] 0.056 | [5] 0.004 | [6] 0.063

RNF25 (UniProt Q96BH1)
inactive: nilotinib 0.036 | [1] -0.029 | dasatinib -0.017 | [2] 0.004 | [3] -0.006 | quisinostat 0.005 | tipifarnib 0.012 | [4] -0.014 | [5] 0.014 | [6] -0.063

RNPS1 (UniProt Q15287)
active: quisinostat 0.239
inactive: nilotinib 0.025 | [1] -0.047 | dasatinib 0.044 | [2] -0.035 | [3] 0.034 | tipifarnib -0.056 | [4] 0.029 | [5] 0.018 | [6] -0.033

RNF138 (UniProt Q8WVD3)
inactive: nilotinib -0.05 | [1] 0.016 | dasatinib -0.057 | [2] -0.044 | [3] 0.015 | quisinostat 0.084 | tipifarnib 0.009 | [4] -0.071

RIDA (UniProt P52758)
inactive: nilotinib 0.03 | [1] 0.029 | dasatinib 0.025 | [2] 0.03 | [3] 0.018 | quisinostat 0.093 | tipifarnib 0.026 | [4] -0.028 | [5] 0.036 | [6] 0.012

RNGTT (UniProt O60942)
inactive: nilotinib 0.011 | [1] -0.01 | dasatinib 0.055 | [2] 0.009 | [3] 0.068 | quisinostat -0.049 | tipifarnib 0.018 | [4] 0.066 | [5] 0.01 | [6] -0.022

RPL18 (UniProt Q07020)
inactive: nilotinib -0.019 | [1] 0.017 | dasatinib 0.049 | [2] -0.032 | [3] 0.01 | quisinostat 0.017 | tipifarnib 0.005 | [4] -0.028 | [5] -0.015 | [6] -0.019

ROGDI (UniProt Q9GZN7)
inactive: nilotinib -0.032 | [1] 0.044 | dasatinib -0.187 | [2] -0.017 | [3] 0.176 | quisinostat 0.114 | tipifarnib -0.102 | [4] 0.027 | [5] -0.151 | [6] -0.145

RNMT isoform 2 (UniProt O43148)
inactive: nilotinib 0.006 | [1] 0.008 | dasatinib 0 | [2] 0.033 | [3] 0.029 | quisinostat 0.001 | tipifarnib -0.019 | [4] 0.013 | [5] 0.014 | [6] 0.009

RPAP2 (UniProt Q8IXW5)
inactive: nilotinib -0.013 | [1] 0.022 | dasatinib -0.035 | [2] -0.002 | [3] -0.05 | quisinostat -0.15 | tipifarnib -0.033 | [4] 0.004 | [5] 0.035 | [6] 0.012

RNF168 (UniProt Q8IYW5)
inactive: nilotinib 0.144 | [1] 0.085 | dasatinib 0.064 | [2] -0.186 | [3] 0.006 | quisinostat -0.019 | tipifarnib 0.016 | [4] -0.009 | [5] -0.02 | [6] 0.018

ROMO1 (UniProt P60602)
inactive: nilotinib -0.083 | [1] -0.021 | dasatinib -0.013 | [2] 0.11 | [3] -0.037 | quisinostat -0.223 | tipifarnib 0.098 | [4] 0.003 | [5] 0.01 | [6] 0.046

RPL34 (UniProt P49207)
inactive: nilotinib 0.007 | [1] -0.027 | dasatinib -0.019 | [2] -0.018 | [3] 0.004 | quisinostat -0.034 | tipifarnib -0.014 | [4] -0.022 | [5] -0.023 | [6] -0.006

ROR2 (UniProt Q01974)
inactive: nilotinib 0.029 | [1] 0.016 | dasatinib 0.021 | [2] -0.09 | [3] 0.002 | quisinostat -0.15 | tipifarnib -0.039 | [4] 0.059 | [5] 0.02 | [6] 0.036

RLF (UniProt Q13129)
inactive: nilotinib -0.164 | [1] -0.131 | dasatinib 0.108 | [2] -0.037 | [3] -0.132 | quisinostat 0.107 | tipifarnib -0.093 | [4] 0.032 | [5] 0.049

RMND1 (UniProt Q9NWS8)
inactive: nilotinib -0.001 | [1] 0.064 | dasatinib 0.014 | [2] -0.002 | [3] 0.034 | quisinostat 0.048 | tipifarnib 0.071 | [4] 0.028 | [5] 0.069 | [6] 0.032

RP2 (UniProt O75695)
inactive: nilotinib -0.007 | [1] -0.011 | dasatinib -0.028 | [2] -0.002 | [3] -0.014 | quisinostat 0.049 | tipifarnib 0 | [4] 0.007 | [5] 0.039 | [6] -0.043

Quoted from the listing (7 entries):
RPAP2 (UniProt Q8IXW5)
inactive: nilotinib -0.013 | [1] 0.022 | dasatinib -0.035 | [2] -0.002 | [3] -0.05 | quisinostat -0.15 | tipifarnib -0.033 | [4] 0.004 | [5] 0.035 | [6] 0.012

RNF168 (UniProt Q8IYW5)
inactive: nilotinib 0.144 | [1] 0.085 | dasatinib 0.064 | [2] -0.186 | [3] 0.006 | quisinostat -0.019 | tipifarnib 0.016 | [4] -0.009 | [5] -0.02 | [6] 0.018

ROMO1 (UniProt P60602)
inactive: nilotinib -0.083 | [1] -0.021 | dasatinib -0.013 | [2] 0.11 | [3] -0.037 | quisinostat -0.223 | tipifarnib 0.098 | [4] 0.003 | [5] 0.01 | [6] 0.046

RPL34 (UniProt P49207)
inactive: nilotinib 0.007 | [1] -0.027 | dasatinib -0.019 | [2] -0.018 | [3] 0.004 | quisinostat -0.034 | tipifarnib -0.014 | [4] -0.022 | [5] -0.023 | [6] -0.006

ROR2 (UniProt Q01974)
inactive: nilotinib 0.029 | [1] 0.016 | dasatinib 0.021 | [2] -0.09 | [3] 0.002 | quisinostat -0.15 | tipifarnib -0.039 | [4] 0.059 | [5] 0.02 | [6] 0.036

RLF (UniProt Q13129)
inactive: nilotinib -0.164 | [1] -0.131 | dasatinib 0.108 | [2] -0.037 | [3] -0.132 | quisinostat 0.107 | tipifarnib -0.093 | [4] 0.032 | [5] 0.049

RMND1 (UniProt Q9NWS8)
inactive: nilotinib -0.001 | [1] 0.064 | dasatinib 0.014 | [2] -0.002 | [3] 0.034 | quisinostat 0.048 | tipifarnib 0.071 | [4] 0.028 | [5] 0.069 | [6] 0.032

More results.

RPL18A (UniProt Q02543)
inactive: nilotinib 0.013 | [1] -0.019 | dasatinib 0.034 | [2] -0.016 | [3] -0.007 | quisinostat 0.099 | tipifarnib -0.011 | [4] -0.037 | [5] 0 | [6] 0

RNPC3 (UniProt Q96LT9)
inactive: nilotinib -0.104 | [1] 0.069 | dasatinib 0.042 | [2] 0.01 | [3] -0.061 | quisinostat -0.071 | tipifarnib -0.075 | [4] -0.063 | [5] -0.056 | [6] 0.06

RPL31 (UniProt P62899)
inactive: nilotinib 0.007 | [1] -0.034 | dasatinib 0.046 | [2] -0.036 | [3] -0.038 | quisinostat 0.043 | tipifarnib 0.021 | [4] -0.004 | [5] -0.018 | [6] 0.005

RO60 (UniProt P10155)
inactive: nilotinib 0.006 | [1] 0.003 | dasatinib 0.04 | [2] -0.007 | [3] 0.01 | quisinostat 0.031 | tipifarnib 0.002 | [4] -0.012 | [5] -0.014 | [6] 0.011
